# Measured values reported in PMC6461443.
# The chains behind the UniProt entries cited, without tags or fusion partners.
# UniProt P04133: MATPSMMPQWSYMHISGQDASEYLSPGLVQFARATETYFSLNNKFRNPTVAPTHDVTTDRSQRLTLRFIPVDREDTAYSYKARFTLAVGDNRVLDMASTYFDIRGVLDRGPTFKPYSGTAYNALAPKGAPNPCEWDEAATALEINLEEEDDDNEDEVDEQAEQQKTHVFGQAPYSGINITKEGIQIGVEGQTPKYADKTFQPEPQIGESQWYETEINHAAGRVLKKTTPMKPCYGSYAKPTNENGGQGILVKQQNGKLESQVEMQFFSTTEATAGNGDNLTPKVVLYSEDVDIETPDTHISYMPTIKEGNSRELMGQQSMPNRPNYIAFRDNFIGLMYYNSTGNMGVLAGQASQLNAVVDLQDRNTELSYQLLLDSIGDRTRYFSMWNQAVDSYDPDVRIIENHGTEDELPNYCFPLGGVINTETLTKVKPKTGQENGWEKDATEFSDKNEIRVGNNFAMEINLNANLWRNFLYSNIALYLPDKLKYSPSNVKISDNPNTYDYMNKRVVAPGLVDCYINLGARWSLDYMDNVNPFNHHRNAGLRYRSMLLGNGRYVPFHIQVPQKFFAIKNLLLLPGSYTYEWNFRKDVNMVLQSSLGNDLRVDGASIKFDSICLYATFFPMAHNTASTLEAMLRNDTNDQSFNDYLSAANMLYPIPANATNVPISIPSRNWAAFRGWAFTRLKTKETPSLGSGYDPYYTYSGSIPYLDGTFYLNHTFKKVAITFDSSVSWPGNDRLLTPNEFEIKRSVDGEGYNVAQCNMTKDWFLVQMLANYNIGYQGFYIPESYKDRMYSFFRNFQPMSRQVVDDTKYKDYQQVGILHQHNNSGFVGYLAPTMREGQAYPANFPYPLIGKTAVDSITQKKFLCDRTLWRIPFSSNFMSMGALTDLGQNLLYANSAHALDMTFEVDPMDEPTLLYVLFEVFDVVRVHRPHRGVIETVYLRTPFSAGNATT
# No constants are given. Whether binding was seen depends on the method and setting.
# B1: Ad5 fiber protein (protein, UniProt P11818 1-581)
# chain: MKRARPSEDTFNPVYPYDTETGPPTVPFLTPPFVSPNGFQESPPGVLSLRLSEPLVTSNGMLALKMGNGLSLDEAGNLTSQNVTTVSPPLKKTKSNINLEISAPLTVTSEALTVAAAAPLMVAGNTLTMQSQAPLTVHDSKLSIATQGPLTVSEGKLALQTSGPLTTTDSSTLTITASPPLTTATGSLGIDLKEPIYTQNGKLGLKYGAPLHVTDDLNTLTVATGPGVTINNTSLQTKVTGALGFDSQGNMQLNVAGGLRIDSQNRRLILDVSYPFDAQNQLNLRLGQGPLFINSAHNLDINYNKGLYLFTASNNSKKLEVNLSTAKGLMFDATAIAINAGDGLEFGSPNAPNTNPLKTKIGHGLEFDSNKAMVPKLGTGLSFDSTGAITVGNKNNDKLTLWTTPAPSPNCRLNAEKDAKLTLVLTKCGSQILATVSVLAVKGSLAPISGTVQSAHLIIRFDENGVLLNNSFLDPEYWNFRNGDLTEGTAYTNAVGFMPNLSAYPKSHGKTAKSNIVSQVYLNGDKTKPVTLTITLNGTQETGDTTPSAYSMSFSWDWSGHNYINEIFATSSYTFSYIAQE
# Molecular target: Ad5 hexon, in the virion (human adenovirus 5) (UniProt P04133)
# Test: co-IP; both purified
binder,measurement,value
B1,binding,no binding (condition: after heating Ad5 to 49°C)
